Laboratory results as given in PubChem BioAssay AID540276 (National Center for Advancing Translational Sciences (NCATS), 2011).
Several values for one entry are separate records, joined by “and”; a condition that tells them apart may be missing. Identical values can stand only once. Among all 300,000 compounds or so, about 5,400 (1.8%) were called active. The shares of active, inactive and inconclusive entries below differ from those in the screen. Calls come from the whole dose curve; tested in HEK293 cells. A potency beside an inconclusive call is a rough fit, not a confirmed value.

test: qHTS for inhibitors of binding or entry into cells for Marburg Virus; conditions: Marburg virus pseudotyped entry inhibition, cell reporter; activity change, negative = inhibition: at 37.8 µM (top of the series) unless noted
% is set by controls: 0 for no effect and ±100 for the full control effect; potency is the fitted concentration of half-maximal effect.

Row | Compound | activity change, negative = inhibition | Potency
1 | CCOC(=O)c1nn(-c2ccc(Cl)cc2)c2nc(Nc3ccccc3)cc(=O)n12 | inactive: 0.827% | 
2 | COc1ccccc1N1CCN(S(=O)(=O)c2ccc(NC(C)=O)cc2)CC1 |  | inconclusive: 2.82 µM [inhibitor, full curve, poor fit]
3 | Cc1sc(NC(=O)c2ccco2)c(C(c2cccnc2)N2CCCC2)c1C (stereo unspecified) |  | inconclusive: 23.1 µM [inhibitor, partial curve, poor fit]
4 | Cc1ccc(N(CCCCN2C(=O)c3ccccc3C2=O)C(=O)c2cccs2)cc1 |  | inconclusive: 17.8 µM [inhibitor, single point]
5 | C=CCn1c(COc2ccccc2F)nnc1SCC(=O)NC(=O)NCc1ccco1 | inactive: 21% | 
6 | COc1ccc(/C=N/NC(=O)c2[nH]c3ccc(C)cc3c2-c2ccccc2)c(C(=O)O)c1OC | inactive: -15.7% [at 46.1 µM] | 
7 | CCNc1nc(SCC(=O)OC)nc(N2CCOCC2)n1 | inactive: 6.36% | 
8 | CCCCC1CN2C(CCC(C)C2c2ccc(Br)cc2)C(=O)O1 (stereo unspecified) | inactive: 3.61% [at 14.2 µM] | 
9 | CN(C)CCCNC(=O)CC(c1ccc(F)cc1)c1ccco1 (stereo unspecified) | inactive: -8.72% | 
10 | CCc1cc2cc(C)ccc2nc1SCC(=O)N1CC(=O)Nc2ccccc21 |  | inconclusive: 35.5 µM [inhibitor, single point]
11 | O=C(Nc1ccccc1)N1CCN(Cc2ccc3c(c2)OCO3)CC1 | inactive: 4.48% | 
12 | Cn1cnc([N+](=O)[O-])c1Oc1ccccc1 |  | inconclusive: 0.891 µM [activator, single point]
13 | CCN(CC)CCN(Cc1cc2ccc(C)cc2[nH]c1=O)C(=O)Nc1ccc(Cl)cc1 |  | inconclusive: 3.16 µM [inhibitor, single point]
14 | COc1ccc(-n2cnc3cc([N+](=O)[O-])ccc32)cc1 | inactive: -7.22% [at 46.1 µM] | 
15 | COc1ccc(OC)c(C2CC(=O)N3CN(c4ccc(C)c(Cl)c4)CSC3=C2C#N)c1 (stereo unspecified) | inactive: -2.14% | 
16 | CC(=O)c1sc(NC(=O)c2cc(-c3ccccc3)nn2-c2ccccc2)nc1C |  | inconclusive: 3.98 µM [inhibitor, full curve, poor fit]
17 | Cc1ccc(C(=O)N2CCCC(C(=O)c3ccc(Oc4ccccc4)cc3)C2)cn1 (stereo unspecified) |  | inconclusive: 7.94 µM [inhibitor, partial curve, poor fit]
18 | CCN(CC)C(=S)SCC(=O)Nc1ccc(S(N)(=O)=O)cc1 |  | inconclusive: 12.6 µM [inhibitor, single point]
19 | CC(=O)c1nnn(-c2cccc([N+](=O)[O-])c2)c1C | inactive: 5% [at 46.1 µM] | 
20 | CN(C)C(=O)Oc1ccc(C(=O)c2ccccc2)cc1 | inactive: 0.922% | 
21 | O=C(c1ccncc1)N(c1ccc2oc3c(c2c1)CCCC3)S(=O)(=O)c1cccc([N+](=O)[O-])c1 | inactive: -6.48% | 
22 | O=C(CCN1CCc2ccccc2C1)Nc1ccc2c(c1)OCO2 | inactive: 3.6% | 
23 | CC(C)c1ccc(NC(=O)C2CC(=O)N(C(C)C)C2)cc1 (stereo unspecified) |  | inconclusive: 4.47 µM [inhibitor, single point]
24 | COC(=O)c1c(NC(=O)Cc2cccs2)sc2c1CCC(C)C2 (stereo unspecified) | inactive: 0.641% | 

Row | Compound | activity change, negative = inhibition | Potency
25 | O=C(Nc1ccccc1Cl)c1ccn[nH]1 | inactive: 3.96% | 
26 | COC(=O)c1sc(N)c(C(=O)OC)c1COC(=O)CNS(=O)(=O)c1ccc(C)cc1 |  | inconclusive: 2.91 µM [inhibitor, partial curve, poor fit]
27 | CCN1C(=O)NC(c2ccco2)C(C(=O)OC)=C1C (stereo unspecified) |  | inconclusive: 0.0841 µM [activator, full curve, poor fit]
28 | Cc1ccc(NC2Sc3ccccc3NC2=O)cc1 (stereo unspecified) |  | inconclusive: 0.562 µM [activator, full curve, poor fit]
29 | Cc1c(Cl)cccc1NC(=O)c1ncn(-c2ccccc2)n1 |  | inconclusive: 2.51 µM [activator, full curve, poor fit]
30 | Cc1ccccc1C(=O)N1CCN(c2ccc(NC(=O)c3cccs3)cc2)CC1 |  | inconclusive: 11.2 µM [inhibitor, partial curve, poor fit]
31 | COC(=O)c1c(C)oc2ccc(N(C(=O)c3ccncc3)S(=O)(=O)c3ccc(C)cc3)cc12 |  | active: 3.16 µM
32 | CC(=O)Nc1ccc(/C=N/NC(=O)c2cccc(S(=O)(=O)N3CCOCC3)c2)cc1 |  | inconclusive: 2.51 µM [activator, partial curve, poor fit]
33 | COc1ccccc1CNC(=O)CN(c1ccc(C)cc1)S(=O)(=O)c1c(C)n[nH]c1C |  | inconclusive: 2.82 µM [inhibitor, full curve, poor fit]
34 | O=C(OCc1cn([C@H]2CN(CC3CCCCC3)[C@@H](c3ccc(Cl)cc3)C[C@H]2O)nn1)c1ccccc1 |  | active: 14.1 µM
35 | COC(=O)CSc1nnc(CNS(=O)(=O)c2ccc(Cl)cc2)n1C | inactive: 4.17% | 
36 | COC(=O)c1ccc(C(=O)OC)c(NC(=O)COC(=O)c2ccccc2OC)c1 |  | inconclusive: 0.891 µM [activator, partial curve, poor fit]
37 | CCOc1cc(S(=O)(=O)NCc2ccc3c(c2)OCO3)c(C)cc1C | inactive: -6.07% [at 46.1 µM] | 
38 | O=P(Nc1ccccc1)(Nc1ccccc1)Oc1cccc(Cl)c1 |  | inconclusive: 25.9 µM [inhibitor, single point]
39 | N#Cc1cc([N+](=O)[O-])ccc1NC(=O)COC(=O)C1CC2CCCC(C1)C2=O (stereo unspecified) |  | inconclusive: 35.5 µM [activator, single point]
40 | CN(CCOc1cccc(C(F)(F)F)c1)Cc1ccccc1 |  | inconclusive: 35.5 µM [inhibitor, single point]
41 | COc1cccc(CSc2nc3sc(C)c(C)c3c(=O)n2Cc2ccco2)c1 |  | active: 14.6 µM
42 | CC(C(=O)Nc1ccccc1Br)c1ccc([N+](=O)[O-])cc1 (stereo unspecified) | inactive: 3.97% | 
43 | CCOc1nc(Nc2ccc([N+](=O)[O-])cc2)nc(NC(C)(C)C)n1 |  | inconclusive: 32.6 µM [inhibitor, single point]
44 | S=C(Nc1ccccc1)N1CCN(C/C=C/c2ccccc2)CC1 |  | inconclusive: 31.6 µM [inhibitor, single point]
45 | CCn1c(CN2CCOCC2)nnc1SCC(=O)Nc1cccc(C)c1 |  | inconclusive: 1.58 µM [activator, partial curve, poor fit]
46 | O=C(CSc1ccc2nnc(-c3ccc(F)cc3)n2n1)NCC1CCCO1 (stereo unspecified) |  | inconclusive: 0.58 µM [inhibitor, partial curve, poor fit]
47 | COc1ccc(/C=C2/C(=O)OCc3cc(OC)c(OC)cc32)c(OC)c1 |  | inconclusive: 1.12 µM [activator, single point]
48 | CC(=O)C1=NN(c2ccccc2)C(c2ccc3c(c2)OCO3)N1c1ccc(N2CCOCC2)cc1 (stereo unspecified) | inactive: -16.7% | 

Row | Compound | activity change, negative = inhibition | Potency
49 | Cc1c(C(=O)N2CCOCC2)c(S(=O)(=O)N2CCN(c3ccc(Cl)cc3)CC2)c(C)n1C | inactive: 8% [at 46.1 µM] | 
50 | CCCn1c(=N)n(CC(=O)c2ccc(Cl)cc2)c2ccccc21 |  | inconclusive: 8.91 µM [inhibitor, partial curve, poor fit]
51 | CCOc1cccc(N(C(=O)CCC(=O)Nc2cc(C)on2)C(C(=O)NC(C)(C)C)c2ccc(OC)cc2)c1 (stereo unspecified) |  | inconclusive: 7.94 µM [inhibitor, partial curve, poor fit]
52 | O=C(CSc1nc2ccc(Cl)cc2[nH]1)NCc1ccco1 |  | inconclusive: 2.51 µM [inhibitor, partial curve, poor fit]
53 | Cc1ccc(-c2csc(=Nc3ccc(F)cc3)n2Cc2ccc3c(c2)OCO3)cc1C | inactive: 14.7% [at 46.1 µM] | 
54 | CO/N=C/c1ccc(N2CCN(C(=O)c3ccc(F)cc3)CC2)c([N+](=O)[O-])c1 |  | inconclusive: 20.6 µM [inhibitor, single point]
55 | Cc1ccc(CSc2nc3ccsc3c(=O)n2Cc2ccccn2)cc1 |  | inconclusive: 12.6 µM [inhibitor, single point]
56 | Cn1c(NCc2ccc(Cl)cc2)nc2ccccc21 |  | inconclusive: 20 µM [inhibitor, partial curve, poor fit]
57 | Cc1ccc(NC(=O)COC(=O)CN2C(=O)COc3ccccc32)cc1 | inactive: 2.71% | 
58 | Cc1cc(C)nc(NN=CC2=C(N3CCOCC3)/C(=C/c3ccc(Cl)cc3)CC2)n1 | inactive: -16.4% [at 46.1 µM] | 
59 | CCc1nnc(NC(=O)C2CCN(S(=O)(=O)Cc3ccccc3)CC2)s1 |  | inconclusive: 11.2 µM [activator, partial curve]
60 | CCOC(=O)c1c(Cc2ccc(Cl)cc2)c[nH]c1C |  | inconclusive: 35.5 µM [inhibitor, single point]
61 | Cc1nc2ccc(C(=O)N3CCN(c4ccccn4)CC3)cc2s1 |  | inconclusive: 12.6 µM [inhibitor, partial curve, poor fit]
62 | C/C(=N\NC(=O)c1cc(C)oc1C)c1ccc2c(c1)OCO2 | inactive: -0.979% [at 46.1 µM] | 
63 | CC(C)(C)C(=O)Cn1c(=N)n(Cc2ccccc2)c2ccccc21 |  | inconclusive: 35.5 µM [inhibitor, partial curve, poor fit]
64 | CCCCN(C(=O)Cn1nnc2ccccc21)C(C(=O)NCCOC)c1cccs1 (stereo unspecified) | inactive: 9.88% | 
65 | COc1ccc(NC(=O)c2ccccc2NC(=O)CSc2ccc(Cl)cc2)cc1 |  | inconclusive: 35.5 µM [inhibitor, single point]
66 | O=C(CS(=O)(=O)c1ccc2ccccc2c1)N1CCCCCC1 | inactive: 1.26% [at 46.1 µM] | 
67 | CCC(=O)Nc1cccc2cccnc12 | inactive: -2.95% | 
68 | Cc1onc(-c2ccccc2Cl)c1C(=O)N1CCc2ccccc2C1 | inactive: -22.1% | 
69 | O=C(/C=C\c1ccc2c(c1)OCO2)c1ccc(F)cc1 | inactive: -9.44% [at 14.2 µM] | 
70 | O=C(C1CCCN(S(=O)(=O)c2ccc(Br)s2)C1)N1CCN(c2ccccc2)CC1 (stereo unspecified) |  | inactive and inconclusive: 3.98 µM [inhibitor, partial curve, poor fit]
71 | Cc1ccc(N(C(=O)CNC(=O)c2ccco2)C(C(=O)NC2CCCC2)c2cccnc2)c(C)c1 (stereo unspecified) | inactive: 4.71% [at 46.1 µM] | 
